According to PubChem BioAssay AID493014 (National Center for Advancing Translational Sciences (NCATS), 2011):
This is one part of the list. Further columns of the screen follow, without active or inactive calls. Most of these compounds were active or inconclusive in the main read-out, so they are no random draw. The note in brackets gives the kind of curve behind each potency; many fits are weak.

Assay: qHTS Assay to Find Inhibitors of Chronic Active B-Cell Receptor Signaling
Details: ABC-DLBCL IkBa-CBG/CBR reporter, luminescence ratio (green luciferase fused to IkBa over red control in TMD8 lymphoma cells), 4 h
Summary of the method: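 Concentration-response series (up to 46 uM) were applied to TMD8 dual-reporter cells for 4 h at 37C with doxycycline. Green/red ratio, after filter-overlap correction, defined %Activity; red signal alone was normalised to basal cells and zero luminescence.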

[1] = measured here: CBR red luminescence, cell number
[2] = measured here: IkBa-CBG green luminescence

Row | SMILES | AC50 [1] | AC50 [2]
1 | CCOC(=O)C1CCN(c2c(Nc3ccc4c(c3)OCCO4)c(=O)c2=O)CC1 | 29.1 µM [rising, single point] | 
2 | C/C(=N\OCc1ccccc1)c1c(O)cc(C(C)C)n(-c2ccccc2)c1=O | 23.1 µM [rising, partial curve, poor fit] | 
3 | CCC(=O)Nc1ccc(C(=O)Nc2cccc(OC)c2)cc1 | 0.13 µM [falling, partial curve, poor fit] | 
4 | O=C(CSc1n[nH]c(-c2ccco2)n1)N1c2ccccc2Sc2ccccc21 | 15.8 µM [falling, single point] | 
5 | OC(CNCc1ccccc1Cl)C(F)(F)F (stereo not given) | 35.5 µM [falling, single point] | 
6 | CCN1/C(=C2\C(=O)N(C)C(=S)N2C)C=Cc2ccccc21 | 29.1 µM [rising, single point] | 
7 | NC1=C(Br)C(=O)c2ccccc2C1=O | 35.5 µM [falling, single point] | 
8 | COc1cc(C)c(Cl)cc1S(=O)(=O)n1cnc2ccccc21 | 0.259 µM [falling, full curve, poor fit] | 
9 | COc1cccc(OCc2cc(/C=N/NC(=O)c3ccn[nH]3)ccc2OC)c1 | 14.1 µM [falling, partial curve, poor fit] | 
10 | Cc1cc(NCCC(C)C)n2nc(C)c(-c3ccccc3)c2n1 | 0.731 µM [rising, full curve, poor fit] | 
11 | Cc1ccc(NCC(O)Cn2cnc3c2c(=O)n(C)c(=O)n3C)cc1 (stereo not given) | 5.01 µM [rising, partial curve] | 
12 | COCCNC(=O)C(=O)Nc1ccc2c(c1)N(S(=O)(=O)c1cccs1)CCC2 | 23.1 µM [rising, single point] | 16.4 µM [falling, single point]
13 | CCc1ccc(Nc2nc(N)nc(CSc3nnnn3-c3ccccc3)n2)cc1 | 23.1 µM [rising, partial curve] | 
14 | COc1ccc(Nc2cc(Sc3ccc(OC)cc3)ncn2)cc1 | 35.5 µM [falling, single point] | 
15 | O=C(CCN1C(=O)/C(=C\c2ccccc2)SC1=S)NCCCN1CCOCC1 | 35.5 µM [falling, single point] | 
16 | Cc1cc(C)c(C(=O)CC(=O)c2ccccc2Cl)c(O)c1 | 35.5 µM [rising, partial curve, poor fit] | 
17 | CCc1ccc(CNC(=O)C2CCCN(S(=O)(=O)N(CC)c3ccccc3)C2)cc1 (stereo not given) | 35.5 µM [falling, single point] | 
18 | CCCc1[nH]c2ccc(C(=O)OC)cc2c1CCC | 31.6 µM [rising, single point] | 
19 | Cc1ccc(C(=O)Oc2cccc(NC(=O)c3cccs3)c2)cc1S(=O)(=O)N1CCOCC1 | 7.31 µM [falling, partial curve] | 
20 | O=C(c1cccc([N+](=O)[O-])c1)n1nc(-c2ccccc2)nc1NCc1ccccc1 | 20.6 µM [falling, single point] | 
21 | COc1ccc2ccccc2c1/C=N/NC(=O)c1ccc([N+](=O)[O-])cc1 | 5.62 µM [rising, single point] | 
22 | COc1ccccc1-n1cnc2cc(C(=O)NC3CCCC3)ccc21 | 9.2 µM [falling, partial curve, poor fit] | 

Row | SMILES | AC50 [1] | AC50 [2]
23 | CCCOC(=O)c1ccc(NC(=O)COC)cc1 | 16.4 µM [rising, partial curve] | 
24 | O=C(CSCc1ccco1)c1ccc(Cl)s1 | 15.8 µM [rising, partial curve] | 
25 | Fc1ccccc1/C=C/c1ccc2ccccc2n1 | 11.6 µM [falling, partial curve] | 
26 | COc1cc(NC(=O)CSc2nccc(C)n2)c(C)cc1[N+](=O)[O-] | 11.6 µM [rising, partial curve] | 3.26 µM [falling, partial curve, poor fit]
27 | CCc1cc(N2CCOCC2)cc2c1[nH]c1ccccc12 | 0.631 µM [falling, partial curve, poor fit] | 
28 | Cc1ccc(C(=O)NCCC2=CCCCC2)cc1S(=O)(=O)N1CCOCC1 | 6.51 µM [rising, single point] | 
29 | CN(CCOc1ccccc1)C(=O)c1ccc(OC2CCN(C(=O)C3CC3)CC2)cc1 | 35.5 µM [rising, single point] | 
30 | CCOc1ccc(OCC(=O)OCC(=O)NCC2CCCO2)cc1 (stereo not given) | 18.4 µM [rising, partial curve, poor fit] | 
31 | CCOC(=O)c1c(NC(C)=O)sc2c(O)cccc12 | 15.8 µM [falling, single point] | 
32 | Cc1ccc(Cl)cc1NC(=O)COC(=O)CC(C)(C)C | 25.1 µM [falling, partial curve, poor fit] | 
33 | Cc1nn(C)c(C(=O)Sc2ccccc2)c1[N+](=O)[O-] | 35.5 µM [rising, single point] | 35.5 µM [falling, single point]
34 | N/C(=N\O)c1ccc(NC(=O)c2cccs2)cc1 | 5.62 µM [falling, full curve] | 
35 | COC(=O)c1[nH]c2ccccc2c1NS(=O)(=O)c1ccc(OC)cc1OC | 6.51 µM [rising, single point] | 
36 | CCn1c(=O)[nH]c(=O)c2c(N)c(C(=O)c3ccccc3OC)sc21 | 25.9 µM [rising, partial curve, poor fit] | 
37 | CN(C)S(=O)(=O)c1ccc2c(c1)c(=O)c(C(=O)N1CCN(c3ccccn3)CC1)cn2C |  | 4.47 µM [rising, full curve, poor fit]
38 | Oc1ccc(Nc2nc(N3CCCC3)c3ccccc3n2)cc1 | 11.2 µM [falling, single point] | 
39 | CC(C)N(C(=S)NCc1ccccc1)C(C)C | 14.1 µM [rising, single point] | 
40 | Cc1cc(C(=O)COC(=O)c2ccc(O)cc2)c(C)n1CCc1ccc(F)cc1 | 11.2 µM [falling, partial curve, poor fit] | 
41 | CSC1=N/C(=C\c2ccc(Cl)cc2)C(=O)N1N(C)C | 15.8 µM [rising, partial curve, poor fit] | 
42 | COc1ccc(C(=O)N/N=C/c2ccc3cccc(O)c3n2)cc1 | 22.4 µM [falling, single point] | 
43 | Cc1ccccc1NC(=O)c1cccc(N2C(=O)C3CCCCC3C2=O)c1 (stereo not given) | 35.5 µM [falling, single point] | 
44 | Oc1ccccc1N1CCN(c2ncnc3scc(-c4ccccc4)c23)CC1 | 7.94 µM [falling, partial curve, poor fit] | 

Row | SMILES | AC50 [1] | AC50 [2]
45 | CC1(C)C2CC=C(/C=N/NC(=O)C3CC3)C1C2 (stereo not given) | 0.112 µM [rising, full curve, poor fit] | 
46 | COc1ccc2oc(-c3ccc(C)c(NC(=O)c4cccnc4)c3)nc2c1 | 14.1 µM [rising, partial curve, poor fit] | 
47 | C/C(=N/NC(N)=S)c1ccc(Br)s1 |  | 22.4 µM [falling, single point]
48 | COc1ccccc1-n1cnc2cc(NC(C)=O)ccc21 | 14.6 µM [falling, partial curve, poor fit] | 
49 | O=C(NC1CCCCC1)NC1CC2CCC(C1)N2Cc1nnnn1Cc1ccc2c(c1)OCO2 (stereo not given) | 1.58 µM [rising, partial curve, poor fit] | 
50 | COc1cc(C(=O)Nc2ccc(S(=O)(=O)NC(C)(C)C)cc2)cc(OC)c1OC | 2.06 µM [falling, full curve, poor fit] | 
51 | Cc1cc(C)c(NC(=S)N(C)C)c(C)c1 | 6.31 µM [falling, single point] | 
52 | Cc1cc(C)c(C)c(OCCOCCNCc2ccccc2)c1 | 29.1 µM [falling, single point] | 
53 | O=C(NC1CCN(Cc2ccccc2)CC1)c1ccccc1OCc1ccccc1Cl | 35.5 µM [falling, single point] | 
54 | O=C(Nc1ccccc1)N1CCc2ccccc21 | 18.4 µM [falling, single point] | 
55 | O=C(Nc1cccc(F)c1)Nc1ccnn1C1CCN(C(=O)c2cscn2)CC1 | 11.2 µM [rising, partial curve] | 
56 | O=C(COc1ccc2c(-c3ccccc3)cc(=O)oc2c1)NCc1cccs1 | 11.2 µM [rising, partial curve] | 
57 | CCC(Sc1nc2ccccc2o1)C(=O)Nc1nnc(C)s1 (stereo not given) | 29.1 µM [falling, single point] | 29.1 µM [falling, single point]
58 | CCc1ccc2c(COC(=O)CNS(=O)(=O)c3ccc(NC(C)=O)cc3)cc(=O)oc2c1 | 29.1 µM [rising, single point] | 32.6 µM [falling, partial curve, poor fit]
59 | CSc1ccccc1NC(=O)c1ccncc1 | 1.84 µM [rising, full curve, poor fit] | 
60 | COc1ccc(C(=O)COC(=O)c2n[nH]c3ccccc23)c(OC)c1 | 1.46 µM [falling, full curve] | 
61 | COCCNC(=O)c1c(N)n(CCCn2ccnc2)c2nc3ccccc3nc12 | 25.1 µM [falling, single point] | 
62 | O=C(NCc1cccs1)C1CC(=O)N(c2ccc(Cl)cc2)C1 (stereo not given) | 22.4 µM [falling, single point] | 
63 | O=C(CSc1cccc[n+]1[O-])c1ccccc1Br | 0.631 µM [falling, full curve, poor fit] | 0.631 µM [falling, partial curve, poor fit]
64 | Cc1ccc(-c2cc(C(F)(F)F)n3nc(C(=O)NCCCn4ccnc4)cc3n2)cc1C | 2.06 µM [rising, partial curve, poor fit] | 

Some of the entries so far, with tabs.
Row	SMILES	AC50 [1]	AC50 [2]
53	O=C(NC1CCN(Cc2ccccc2)CC1)c1ccccc1OCc1ccccc1Cl	35.5 µM [falling, single point]	
54	O=C(Nc1ccccc1)N1CCc2ccccc21	18.4 µM [falling, single point]	
55	O=C(Nc1cccc(F)c1)Nc1ccnn1C1CCN(C(=O)c2cscn2)CC1	11.2 µM [rising, partial curve]	

Part of the list above, as labelled records.
COc1cccc(OCc2cc(/C=N/NC(=O)c3ccn[nH]3)ccc2OC)c1
  AC50 [1]: 14.1 µM [falling, partial curve, poor fit]
Cc1cc(NCCC(C)C)n2nc(C)c(-c3ccccc3)c2n1
  AC50 [1]: 0.731 µM [rising, full curve, poor fit]
